Results published in patent US20260097129A1, “ANTIBODY-DRUG CONJUGATE COMPRISING DRUG AND ANTIBODY SPECIFICALLY BINDING TO GRP94 OR ANTIGEN-BINDING FRAGMENT THEREOF” (KOOKMIN UNIVERSITY INDUSTRY ACADEMY COOPERATION FOUNDATION, priority 2022, published 2026).
These are yes or no findings as the source states them, for the method shown. Some binding calls cover weakened binding; strength is not graded here.

By UniProt entry, the sequences of proteins in these tests, tags left out. Residues count along the entry.
UniProt P14625, residues 22-803: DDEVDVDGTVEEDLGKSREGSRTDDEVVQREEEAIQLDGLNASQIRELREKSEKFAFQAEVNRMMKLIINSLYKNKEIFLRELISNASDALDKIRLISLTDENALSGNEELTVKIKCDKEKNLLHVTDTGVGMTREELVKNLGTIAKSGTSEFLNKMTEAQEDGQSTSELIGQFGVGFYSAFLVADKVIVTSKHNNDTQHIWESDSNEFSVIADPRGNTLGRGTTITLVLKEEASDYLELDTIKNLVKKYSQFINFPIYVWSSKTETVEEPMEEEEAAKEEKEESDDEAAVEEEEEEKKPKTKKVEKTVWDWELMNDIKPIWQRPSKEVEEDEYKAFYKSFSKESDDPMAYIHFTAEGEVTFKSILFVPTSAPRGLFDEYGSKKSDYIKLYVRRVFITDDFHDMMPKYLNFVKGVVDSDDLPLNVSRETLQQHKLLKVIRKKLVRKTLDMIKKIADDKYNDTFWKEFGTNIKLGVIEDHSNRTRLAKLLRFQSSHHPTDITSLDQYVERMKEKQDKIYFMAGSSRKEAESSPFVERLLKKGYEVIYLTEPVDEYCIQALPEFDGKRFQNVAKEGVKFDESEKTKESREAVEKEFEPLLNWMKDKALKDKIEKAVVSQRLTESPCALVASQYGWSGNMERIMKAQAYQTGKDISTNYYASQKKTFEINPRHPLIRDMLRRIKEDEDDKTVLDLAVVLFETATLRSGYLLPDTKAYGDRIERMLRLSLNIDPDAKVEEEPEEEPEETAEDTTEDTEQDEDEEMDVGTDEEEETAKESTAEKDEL
UniProt P08113, residues 22-802: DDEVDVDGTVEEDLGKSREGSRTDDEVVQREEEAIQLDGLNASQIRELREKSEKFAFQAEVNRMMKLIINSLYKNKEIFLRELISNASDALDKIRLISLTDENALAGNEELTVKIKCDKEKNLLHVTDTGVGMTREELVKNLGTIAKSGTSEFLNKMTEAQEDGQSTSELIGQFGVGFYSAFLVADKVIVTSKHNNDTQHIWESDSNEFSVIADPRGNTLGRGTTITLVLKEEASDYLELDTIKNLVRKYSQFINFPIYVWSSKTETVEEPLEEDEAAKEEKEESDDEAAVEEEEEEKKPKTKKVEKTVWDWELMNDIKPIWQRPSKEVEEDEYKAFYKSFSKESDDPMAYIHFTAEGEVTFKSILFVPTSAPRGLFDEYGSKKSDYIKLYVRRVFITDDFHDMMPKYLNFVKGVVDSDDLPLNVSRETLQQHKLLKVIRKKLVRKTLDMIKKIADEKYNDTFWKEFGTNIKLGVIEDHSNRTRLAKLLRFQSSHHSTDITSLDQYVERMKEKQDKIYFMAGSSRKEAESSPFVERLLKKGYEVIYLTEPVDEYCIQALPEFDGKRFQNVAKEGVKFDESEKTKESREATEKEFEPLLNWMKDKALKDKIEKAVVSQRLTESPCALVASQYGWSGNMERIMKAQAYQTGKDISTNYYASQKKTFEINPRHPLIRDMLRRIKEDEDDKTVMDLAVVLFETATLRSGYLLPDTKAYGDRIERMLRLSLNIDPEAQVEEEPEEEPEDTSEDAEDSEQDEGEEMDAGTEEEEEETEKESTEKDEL

What was measured:
[1] = target: recombinant human GRP94 (human) (UniProt P14625); assay: ELISA, immobilized rhGRP94
[2] = target: recombinant mouse GRP94 (mouse) (UniProt P08113); assay: ELISA, immobilized rmGRP94

B1: K101.1 (antibody, IgG1, V domains shown)
VH: EVQLLESGGGLVQPGGSLRLSCAASGFTFSNYSMSWVRQAPGKGLEWVSGIYYGSGNKYYADSVKGRFTISRDNSKNTLYLQMNSLRAEDTAVYYCAKNLASFDYWGQGTLVTVSS
VL: QSVLTQPPSASGTPGQRVTISCSGSSSNIGSNSVNWYQQLPGTAPKLLIYSNSHRPSGVPDRFSGSKSGTSASLAISGLRSEDEADYYCGTWDSSLSGYVFGGGTKLTVL
binding [1]: binds
binding [2]: binds
